# Measurements from PubChem BioAssay AID2567 (National Center for Advancing Translational Sciences (NCATS), 2010).
# Chains of the proteins cited; added tags and fusions are not shown. Lines headed by an entry give the natural chain unless they say otherwise; changes in a name come on top.
# UniProt Q6W5P4: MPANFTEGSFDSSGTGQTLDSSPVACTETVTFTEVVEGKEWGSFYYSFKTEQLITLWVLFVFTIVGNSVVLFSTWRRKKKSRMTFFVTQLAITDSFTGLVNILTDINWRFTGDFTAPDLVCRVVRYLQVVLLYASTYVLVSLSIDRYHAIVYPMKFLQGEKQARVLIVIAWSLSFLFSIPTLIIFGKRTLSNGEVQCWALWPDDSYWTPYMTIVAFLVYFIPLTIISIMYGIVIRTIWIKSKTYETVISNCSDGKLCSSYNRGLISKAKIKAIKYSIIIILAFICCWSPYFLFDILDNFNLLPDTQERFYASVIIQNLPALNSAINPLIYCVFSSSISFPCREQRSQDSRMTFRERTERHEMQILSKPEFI
# This list was built around the results that the source calls inconclusive (neither active nor inactive); the mix of calls is not that of the screen. Potencies beside an inconclusive call are fits to weak or partial responses and may not hold up. Activity calls are given as the source filed them. Calls come from the whole dose curve; as a rule, active = well fitted antagonist curve with a large enough effect in the main read-out, with a control signal flat; inconclusive = small, poorly fitted or top-dose-only effect; inactive = no such curve, though single readings can be large or run the other way.
# Biological target: Neuropeptide S receptor (Homo sapiens) (UniProt Q6W5P4)
# Experiment: Confirmation Concentration-Response Assay for Antagonists of the Neuropeptide S Receptor: Calcium Signal Transduction, SAR for Probe
# Details: CHO-NPSR cells, NPS-induced calcium fluorescence, FDSS; series mostly up to 19.3 µM
# Excerpt: NIH Chemical Genomics Center [NCGC] NIH Molecular Libraries Probe Production centers Network [MLPCN] MLPCN Grant: X01-DA026210-01 Assay Submitter (PI): Heilig, Markus Alexander NCGC Assay Overview: Neuropeptide S receptor (NPSR), previously known as GPR154, is a recently de-orphanized G protein coupled receptor. Its endogenous ligand is the 20 amino acids peptide Neuropeptide S (NPS). […] NPS and its receptor are found in various tissues. Specifically they are highly expressed in brain areas that have been implicated in modulation of arousal, stress and anxiety. Central administration of NPS in mice produces an unusual profile of activity by inducing wakefulness and arousal, while at the same time suppressing anxiety. Therefore, NPSR may represent a novel drug target for the treatment of sleep and anxiety disorders. To identify NPSR antagonists, we developed a cell-based assay with transfected NPS receptor. NPS can stimulate the production of cAMP as well as release intracellular calcium in Chinese hamster ovary cells stably expressing NPS receptor. This change in intracellular calcium can be detected using a calcium indicator dye on a calcium imaging plate reader system (FDSS).
# NCGC Assay Protocol Summary: A Chinese hamster ovary (CHO) cell line stably expressing the NPS receptor (CHO-NPSR) was obtained from Dr. Heilig lab at NIAAA and maintained in F-12 Kaighn's media (Invitrogen, Carlsbad, CA, 21127) supplemented with 10 % FBS, 100 units/ml penicillin, 100 ug/ml streptomycin and 250 ug/ml geneticin at 37C, 5% CO2 in a humidified atmosphere. Before the assay, aliquots of cells were frozen and stored at -135C. The assay was performed on a FDSS-7000 kinetic plate reader in 1536-well format. For both agonist (1-220s) and antagonist (221-400s) phases, the maximums of kinetic fluorescence responses were converted separately into text files using the instrument's software data export utility. Data for agonist response were normalized to the controls for basal activity (DMSO only) and 100% activation (NPS). […] AC50 values were determined from concentration-response data modeled with the standard Hill equation. NPS 1536-well FDSS assay protocol: (1) Frozen CHO-NPSR cells were thaw, washed once with fresh media and resuspended in F-12 Kaighn's media supplemented with 10 % FBS, 100 units/ml penicillin and 100 ug/ml streptomycin. Cells were plated at 3 ul/well (1200 cells) to black, clear-bottom, tissue-culture treated 1536-well plates, and then cultured at 37C, 5 % CO2 for 16 to 30 hours. (2) Add 3 ul of calcium dye (from High Performance PBX Calcium Assay Kit, BD Biosciences). The calcium dye was prepared according to the manufactory's instruction. (3) Incubation at 37C, 5 % CO2 for 60 to 120 min. (4) Load plates to FDSS-7000. The following steps were performed on FDSS-7000. (5) Record fluorescent background (Ex 480 nm, Em 520-560 nm) for 10 s. (6) Add 23 nl/well of compound in DMSO solution. The final titration for each compound was between 0.6 nM and 46 uM. Record agonist response for 210 s. (7) Add 2 ul of stimulation reagent (1X HBSS buffer, 0.1% BSA, 60 nM NPS). Record antagonist response for 140 s. Keywords: MLSMR, MLPCN, NIH Roadmap, qHTS, NCGC, NPS, Neuropeptide S Antagonists
row,SMILES,Potency
1,O=S1(=O)Nc2c(ccc3cccnc23)-c2ccccc21,"inconclusive: 2.24 µM [antagonist, full curve]"
2,COc1ccc(N2C3=C(CC4=C2CC(C)(C)CC4=O)C(=O)CC(C)(C)C3)cc1,"inconclusive: 11.2 µM [antagonist, single point]"
3,Cc1oc2c(c1C(=O)NCc1cccnc1)C(=O)c1ccccc1C2=O,inactive
4,O=C(NCc1ccc(F)cc1)n1c(-c2ccccc2)c(P(=S)(c2ccccc2)c2ccccc2)c2ccccc21,"inconclusive: 87.2 µM [antagonist, single point]"
5,COc1cc(/C=C2\SC(c3ccc(C)cc3)=NC2=O)cc(OC)c1O,inactive
6,Cc1c(P(=S)(c2ccccc2)c2ccccc2)c2ccccc2n1CCCc1ccccc1,inactive
7,CCO[C@@H]1OC(C(=O)NCc2nc3ccccc3[nH]2)=C[C@H](c2ccc(C(F)(F)F)cc2)[C@H]1CCCO,"inconclusive: 7.94 µM [antagonist, single point]"
8,O=C(NCc1ccc(F)cc1)n1cc(P(=S)(c2ccccc2)c2ccccc2)c2ccccc21,inactive
9,Cc1cc(C)n(-c2nc(Nc3ccccc3C(F)(F)F)nc(-n3nc(C)cc3C)n2)n1,"inconclusive: 11.2 µM [antagonist, partial curve, poor fit]"
10,c1ccc(CSC2=NNC(c3ccccn3)S2)cc1 (stereo not given),"inconclusive: 3.55 µM [antagonist, partial curve, poor fit]"
11,COc1cccc2sc(Nc3nc(-c4ccccn4)cs3)nc12,active: 3.16 µM
12,COc1cccc(C2c3c(ncn(-c4ccccc4C)c3=N)Oc3ccc4ccccc4c32)c1 (stereo not given),active: 5.52 µM
13,C/C(=N\NC(=S)NC1CCCCC1)c1c(F)cccc1F,inactive
14,CCOC(=O)c1cnc(-n2nc(C)cc2C)nc1NC1CCCC1,active: 2.82 µM
15,COc1ccc(C2c3c(nc(CCCc4ccccc4)[nH]c3=O)Oc3ccc4ccccc4c32)cc1OC (stereo not given),inactive
16,Cc1c(P(=S)(c2ccccc2)c2ccccc2)c2ccccc2n1CCc1ccccc1,inactive
17,CCC(=O)O[C@]1(C(=O)CCl)[C@@H](C)C[C@H]2[C@@H]3CCC4=CC(=O)C=C[C@]4(C)[C@@]3(F)[C@@H](O)C[C@@]21C,"inconclusive: 1 µM [antagonist, full curve, poor fit]"
18,COc1ccc(C2c3c(nc(C)[nH]c3=O)Oc3ccc4ccccc4c32)cc1OC (stereo not given),inactive
19,C(=N\Nc1nc(-c2ccccn2)nc2ccccc12)/c1ccccc1,inactive
20,Cc1c(P(=S)(c2ccccc2)c2ccccc2)c2ccccc2n1C(=O)NCc1ccc(F)cc1,"inconclusive: 69.3 µM [antagonist, single point]"

# In the list so far, two have a CF3 group.
row,SMILES,Potency
7,CCO[C@@H]1OC(C(=O)NCc2nc3ccccc3[nH]2)=C[C@H](c2ccc(C(F)(F)F)cc2)[C@H]1CCCO,"inconclusive: 7.94 µM [antagonist, single point]"
9,Cc1cc(C)n(-c2nc(Nc3ccccc3C(F)(F)F)nc(-n3nc(C)cc3C)n2)n1,"inconclusive: 11.2 µM [antagonist, partial curve, poor fit]"

# Further records:

row,SMILES,Potency
1,COc1cccc(C2c3c(ncn(-c4cccc(OC)c4)c3=N)Oc3ccc4ccccc4c32)c1 (stereo not given),active: 5.52 µM
2,C[n+]1cc(C(O)(c2ccccc2)c2ccccc2)n2ccccc21,inactive
3,COc1cccc(C2c3c(ncn(-c4ccccc4Br)c3=N)Oc3ccc4ccccc4c32)c1 (stereo not given),active: 5.52 µM
4,Cc1cc2nc3ccc(=[N+](C)C)cc-3sc2cc1N,inactive
5,CC1=C/C(=N\NC(=S)Nc2cccnc2)CC(C)(C)C1,"inconclusive: 4.47 µM [antagonist, partial curve]"
6,CCOc1ccc(-n2c(=S)sc3c(=O)[nH]c(SCC(=O)C(C)(C)C)nc32)cc1,"inconclusive: 2.24 µM [antagonist, full curve, poor fit]"
7,CCCC(=O)Nc1ncnc2c1ncn2[C@@H]1O[C@@H]2COP(=O)(O)O[C@H]2[C@H]1OC(=O)CCC,"inconclusive: 0.282 µM [antagonist, full curve, poor fit]"
8,O=C(/C=C/c1ccco1)NC(=S)Nc1nc(-c2ccc(Cl)cc2)cs1,"inconclusive: 7.08 µM [antagonist, partial curve, poor fit]"
9,Cn1cc(P(=O)(c2ccccc2)c2ccccc2)c2ccccc21,inactive
10,Cc1nc(NC(=S)Nc2ccccc2)sc1C,"inconclusive: 3.55 µM [antagonist, single point]"
11,N#Cc1c(-c2ccccc2)c(-c2ccccc2)nn(CC(=O)NNC(=O)Nc2ccc(Cl)c(Cl)c2)c1=O,"inconclusive: 0.004 µM [antagonist, full curve, poor fit]"
12,COc1ccc2nc(NC(=S)N(C)C)sc2c1,"inconclusive: 0.004 µM [antagonist, full curve, poor fit]"
13,COc1ccc2c(c1)Oc1ncn(CCN3CCOCC3)c(=N)c1C2c1ccc(OC)c(OC)c1 (stereo not given),active: 11 µM
14,CN(C)C(=O)Oc1cccc([N+](C)(C)C)c1,inactive
15,NC(=S)N/N=C/c1ncc(C(F)(F)F)cc1Cl,inactive
16,CCOC(=O)c1cnc(Nc2nc3ccccc3o2)nc1CSC(=S)N(CC)CC,"inconclusive: 0.316 µM [antagonist, full curve, poor fit]"
17,O=[N+]([O-])c1ccc(N=Nc2ccc(O)cc2O)cc1,"inconclusive: 0.891 µM [antagonist, full curve, poor fit]"
18,CC1(C)Cc2nc3sc4c(SCC(=O)NC(c5ccccc5)c5ccccc5)ncnc4c3cc2CO1,"inconclusive: 0.141 µM [antagonist, full curve, poor fit]"
19,COc1ccc(C2c3c(n(Cc4ccccc4)cnc3=N)Oc3ccc4ccccc4c32)cc1OC (stereo not given),inactive
20,Cc1cc(Br)c2nc3c(c(C(=O)O)c2c1)CCCCC3,"inconclusive: 0.891 µM [antagonist, partial curve, poor fit]"
